Source: patent US11376271B1, “Methods of ameliorating the effects of alcoholic liver damage” (FULGENT LIFE INC., priority 2021, dated 2022)
Some entries share one result that the patent states for a list of compounds.

Test system: mammalian cell lines (insulinogenic (MING), neuronlike (LN229), muscle-like (C2C12), and normal hepatocyte (AML12) cells)
Experiment: NAD+ levels in mammalian cell lines treated with NADH, NRH or NMN
Details: 1 mM, 3 h

NC(=O)C1=CN([C@@H]2O[C@H](COP(=O)(O)OP(=O)(O)OC[C@H]3O[C@@H](n4cnc5c(N)ncnc54)C(O)C3O)C(O)C2O)C=CC1 (stereo partly shown) [NADH, nicotinamide adenine dinucleotide (NAD)+hydrogen (H)]
change in NAD+ concentrations (fold over the control group): 2.7-11 times
